Test results: paper PMC5749289 (Oxidative Medicine and Cellular Longevity, 2017)

Test: general procedure: Fmoc solid-phase peptide synthesis; 2-chloro trityl resin; DEPBT/DIPEA (chain assembly); PyBOP/DIPEA (macrocyclisation)
Conditions: cyclisation step

Substance | cyclisation yield
HELM PEPTIDE1{L.L.[meL].W.[meL]}$PEPTIDE1,PEPTIDE1,1:R1-5:R2$$$V2.0 (SMILES CC(C)C[C@@H]1NC(=O)[C@H](CC(C)C)N(C)C(=O)[C@H](Cc2c[nH]c3ccccc23)NC(=O)[C@H](CC(C)C)N(C)C(=O)[C@H](CC(C)C)NC1=O) | 55.5%
cyclo(Nal-N-Me-Leu-Leu-Leu-N-Me-Leu) | 58.5%
cyclo(Phe-N-Me-Leu-Leu-Leu-N-Me-Leu) | 60.9%
